The test has as its target T1, Prickle2 (mouse (endogenous in mouse brain)) (UniProt Q80Y24).
T1 sequence: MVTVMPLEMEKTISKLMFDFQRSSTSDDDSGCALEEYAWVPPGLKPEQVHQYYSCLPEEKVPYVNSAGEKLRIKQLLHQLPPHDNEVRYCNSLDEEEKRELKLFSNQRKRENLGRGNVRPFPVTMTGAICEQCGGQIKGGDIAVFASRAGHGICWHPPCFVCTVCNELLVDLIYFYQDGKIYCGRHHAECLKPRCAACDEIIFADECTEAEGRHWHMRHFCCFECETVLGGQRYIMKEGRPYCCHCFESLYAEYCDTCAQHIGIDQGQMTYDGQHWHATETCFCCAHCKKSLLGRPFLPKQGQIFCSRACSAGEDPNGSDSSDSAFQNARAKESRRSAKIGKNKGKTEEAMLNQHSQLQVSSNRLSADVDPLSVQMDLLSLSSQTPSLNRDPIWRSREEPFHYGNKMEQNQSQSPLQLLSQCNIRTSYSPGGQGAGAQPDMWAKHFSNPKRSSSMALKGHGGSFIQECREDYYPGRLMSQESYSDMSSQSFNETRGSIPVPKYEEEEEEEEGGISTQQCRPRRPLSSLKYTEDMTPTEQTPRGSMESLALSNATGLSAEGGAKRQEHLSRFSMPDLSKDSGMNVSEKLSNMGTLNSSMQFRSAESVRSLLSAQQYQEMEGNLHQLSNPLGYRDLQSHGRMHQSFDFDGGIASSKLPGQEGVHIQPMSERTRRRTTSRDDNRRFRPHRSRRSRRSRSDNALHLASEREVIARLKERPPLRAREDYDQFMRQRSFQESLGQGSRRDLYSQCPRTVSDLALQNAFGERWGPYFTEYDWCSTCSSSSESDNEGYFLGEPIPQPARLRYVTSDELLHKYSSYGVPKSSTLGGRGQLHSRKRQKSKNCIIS
Description: affinity purification with mass spectrometry; endogenous Prickle2 immunoprecipitated with anti-Prickle2 antibody from whole mouse brain lysate (PD9 and adult) in RIPA buffer; coprecipitated proteins identified by LC-MS/MS; hits had more than 3-fold more peptides than controls.

Protein sequences, listed by entry. Tags and fused reporters are not part of them.
UniProt Q6PHZ2: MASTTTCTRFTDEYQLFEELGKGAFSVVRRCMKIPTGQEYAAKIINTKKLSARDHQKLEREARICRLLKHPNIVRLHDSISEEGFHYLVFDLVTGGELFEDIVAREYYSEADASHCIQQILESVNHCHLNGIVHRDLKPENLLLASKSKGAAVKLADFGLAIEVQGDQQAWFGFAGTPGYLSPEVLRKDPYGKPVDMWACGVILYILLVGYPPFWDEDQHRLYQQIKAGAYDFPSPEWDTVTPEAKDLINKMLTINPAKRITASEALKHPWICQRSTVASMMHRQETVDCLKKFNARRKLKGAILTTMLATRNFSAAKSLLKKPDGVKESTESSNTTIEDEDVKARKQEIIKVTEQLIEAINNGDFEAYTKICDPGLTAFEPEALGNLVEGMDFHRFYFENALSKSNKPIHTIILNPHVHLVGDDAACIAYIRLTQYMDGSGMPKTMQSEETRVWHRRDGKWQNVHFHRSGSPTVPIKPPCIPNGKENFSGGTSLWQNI
UniProt P28652: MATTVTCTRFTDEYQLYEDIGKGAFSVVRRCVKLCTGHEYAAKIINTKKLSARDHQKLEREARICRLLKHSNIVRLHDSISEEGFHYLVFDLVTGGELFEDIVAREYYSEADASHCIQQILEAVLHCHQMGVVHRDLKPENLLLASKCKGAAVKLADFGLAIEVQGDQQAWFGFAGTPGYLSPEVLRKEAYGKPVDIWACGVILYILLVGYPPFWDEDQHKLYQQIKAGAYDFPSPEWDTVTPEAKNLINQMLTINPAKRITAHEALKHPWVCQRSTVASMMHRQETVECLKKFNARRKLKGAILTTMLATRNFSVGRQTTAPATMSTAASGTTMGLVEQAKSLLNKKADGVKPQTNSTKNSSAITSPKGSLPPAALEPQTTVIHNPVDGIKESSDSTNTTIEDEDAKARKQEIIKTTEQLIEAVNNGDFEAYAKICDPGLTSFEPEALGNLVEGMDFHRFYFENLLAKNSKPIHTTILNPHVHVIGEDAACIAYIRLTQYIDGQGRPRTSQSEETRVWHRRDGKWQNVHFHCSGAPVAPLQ
UniProt P11798: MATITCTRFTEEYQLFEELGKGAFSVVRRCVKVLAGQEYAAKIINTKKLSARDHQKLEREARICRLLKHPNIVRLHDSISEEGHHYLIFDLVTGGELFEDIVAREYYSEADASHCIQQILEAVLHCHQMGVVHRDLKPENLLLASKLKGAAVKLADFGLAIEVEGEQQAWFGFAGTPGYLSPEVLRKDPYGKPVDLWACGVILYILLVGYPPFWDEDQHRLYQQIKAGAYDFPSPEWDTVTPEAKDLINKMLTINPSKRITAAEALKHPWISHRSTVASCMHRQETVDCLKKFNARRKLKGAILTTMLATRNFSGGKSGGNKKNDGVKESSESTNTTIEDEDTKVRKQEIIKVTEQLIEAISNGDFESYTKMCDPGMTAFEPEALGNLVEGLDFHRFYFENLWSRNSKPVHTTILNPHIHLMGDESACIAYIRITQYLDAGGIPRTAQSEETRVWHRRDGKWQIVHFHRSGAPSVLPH
UniProt P68373: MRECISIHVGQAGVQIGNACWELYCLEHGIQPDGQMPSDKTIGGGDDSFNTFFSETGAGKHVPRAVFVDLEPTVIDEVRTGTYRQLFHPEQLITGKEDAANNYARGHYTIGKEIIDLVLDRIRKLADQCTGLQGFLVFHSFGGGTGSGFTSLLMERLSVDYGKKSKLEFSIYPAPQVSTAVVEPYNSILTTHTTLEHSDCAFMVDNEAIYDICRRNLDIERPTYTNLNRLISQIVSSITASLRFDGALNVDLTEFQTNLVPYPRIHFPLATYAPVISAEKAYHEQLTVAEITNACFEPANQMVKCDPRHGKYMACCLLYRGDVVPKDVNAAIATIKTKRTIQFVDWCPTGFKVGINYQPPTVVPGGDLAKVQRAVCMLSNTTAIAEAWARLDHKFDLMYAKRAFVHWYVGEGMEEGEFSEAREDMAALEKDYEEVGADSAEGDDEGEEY
UniProt Q3UHU5: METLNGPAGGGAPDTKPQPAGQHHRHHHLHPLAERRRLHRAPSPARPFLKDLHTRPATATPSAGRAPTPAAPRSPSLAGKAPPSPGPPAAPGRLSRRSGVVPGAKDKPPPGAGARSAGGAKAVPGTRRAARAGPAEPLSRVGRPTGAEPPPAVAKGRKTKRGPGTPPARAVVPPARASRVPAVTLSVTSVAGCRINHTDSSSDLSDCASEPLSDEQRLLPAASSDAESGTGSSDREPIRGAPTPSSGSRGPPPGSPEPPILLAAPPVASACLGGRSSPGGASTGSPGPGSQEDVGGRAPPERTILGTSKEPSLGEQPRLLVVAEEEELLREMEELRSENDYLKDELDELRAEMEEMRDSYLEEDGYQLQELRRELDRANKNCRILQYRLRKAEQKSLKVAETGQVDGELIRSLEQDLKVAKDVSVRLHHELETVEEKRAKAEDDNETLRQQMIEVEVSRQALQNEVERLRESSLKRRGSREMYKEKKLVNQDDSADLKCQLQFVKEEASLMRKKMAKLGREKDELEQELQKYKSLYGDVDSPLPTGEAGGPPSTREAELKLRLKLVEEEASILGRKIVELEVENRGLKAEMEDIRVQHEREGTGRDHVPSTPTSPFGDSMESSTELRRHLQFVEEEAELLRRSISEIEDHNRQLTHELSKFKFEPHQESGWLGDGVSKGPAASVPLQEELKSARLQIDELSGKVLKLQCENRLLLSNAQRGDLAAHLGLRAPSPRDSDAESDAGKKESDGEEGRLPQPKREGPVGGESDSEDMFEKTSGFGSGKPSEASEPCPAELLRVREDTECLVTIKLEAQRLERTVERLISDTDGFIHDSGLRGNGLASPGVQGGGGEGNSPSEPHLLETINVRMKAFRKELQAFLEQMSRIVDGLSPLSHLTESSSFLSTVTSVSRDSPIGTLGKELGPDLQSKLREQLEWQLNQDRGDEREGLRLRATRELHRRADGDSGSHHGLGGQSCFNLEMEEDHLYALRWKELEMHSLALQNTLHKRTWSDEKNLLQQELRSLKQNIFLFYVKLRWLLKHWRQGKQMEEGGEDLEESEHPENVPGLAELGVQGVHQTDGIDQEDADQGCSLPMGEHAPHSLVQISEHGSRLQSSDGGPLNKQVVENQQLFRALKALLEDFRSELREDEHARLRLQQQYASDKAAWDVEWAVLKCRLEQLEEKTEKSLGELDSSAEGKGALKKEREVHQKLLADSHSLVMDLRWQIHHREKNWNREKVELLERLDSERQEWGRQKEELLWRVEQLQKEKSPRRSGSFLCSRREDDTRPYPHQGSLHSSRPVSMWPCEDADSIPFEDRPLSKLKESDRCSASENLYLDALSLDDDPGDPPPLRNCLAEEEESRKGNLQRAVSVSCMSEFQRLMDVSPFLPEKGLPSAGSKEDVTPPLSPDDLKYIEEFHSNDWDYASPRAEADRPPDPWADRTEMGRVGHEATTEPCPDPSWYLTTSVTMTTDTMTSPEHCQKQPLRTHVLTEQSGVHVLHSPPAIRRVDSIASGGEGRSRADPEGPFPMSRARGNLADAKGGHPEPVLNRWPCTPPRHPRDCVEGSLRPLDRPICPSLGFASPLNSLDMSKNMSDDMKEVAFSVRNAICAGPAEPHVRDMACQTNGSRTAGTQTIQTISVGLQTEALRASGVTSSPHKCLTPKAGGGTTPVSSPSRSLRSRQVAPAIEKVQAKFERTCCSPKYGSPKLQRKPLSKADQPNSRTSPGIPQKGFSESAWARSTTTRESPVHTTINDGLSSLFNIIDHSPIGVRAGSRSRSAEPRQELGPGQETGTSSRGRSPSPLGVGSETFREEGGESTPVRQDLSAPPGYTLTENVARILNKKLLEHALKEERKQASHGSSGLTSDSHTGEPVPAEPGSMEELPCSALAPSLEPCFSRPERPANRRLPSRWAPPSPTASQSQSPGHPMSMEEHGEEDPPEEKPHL
UniProt P68368: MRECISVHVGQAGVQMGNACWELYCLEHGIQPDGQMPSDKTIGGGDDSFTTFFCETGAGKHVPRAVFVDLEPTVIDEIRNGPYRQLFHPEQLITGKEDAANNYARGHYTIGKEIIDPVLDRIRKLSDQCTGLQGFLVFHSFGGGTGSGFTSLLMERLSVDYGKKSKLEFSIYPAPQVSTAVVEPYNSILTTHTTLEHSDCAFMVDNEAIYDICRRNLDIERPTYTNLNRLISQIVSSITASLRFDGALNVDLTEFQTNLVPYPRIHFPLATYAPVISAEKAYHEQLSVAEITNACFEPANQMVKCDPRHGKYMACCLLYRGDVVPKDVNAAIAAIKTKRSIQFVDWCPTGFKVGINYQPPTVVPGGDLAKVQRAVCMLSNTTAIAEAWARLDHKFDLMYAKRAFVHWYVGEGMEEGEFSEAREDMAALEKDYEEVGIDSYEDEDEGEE

Among the data in paper PMC10511046 are binding values, retold here.

These are yes or no findings as the source states them, for the method shown. Binding seen in cells or lysates may run through a third protein. A yes stands for co-enrichment or nearness to the bait. Other partners may have been found.

Take “Microtubule associated protein 1a (from UniProt Q9QYR6 1-2776)”: the binding entry was “binds”.

Regarding “Calcium-calmodulin dependent kinase CamK2delta (from UniProt Q6PHZ2 1-499)”, the binding result is on record as “binds”. In the case of “Calcium-calmodulin dependent kinase CamK2beta (from UniProt P28652 1-542)”, the binding entry was “binds”.

On to “Calcium-calmodulin dependent kinase CamK2alpha (from UniProt P11798 1-478)”, for which the binding entry was “binds”. The result for Tuba1c (from UniProt P68373 1-449) reads “binds”. Take “Tuba4b (mouse (endogenous in mouse brain))”: the binding result is reported as “binds”. In the case of “Microtubule crosslinking factor 1 (from UniProt Q3UHU5 1-1945)”, the binding result is recorded as “binds”.

Tuba4a (from UniProt P68368 1-448): the binding result is “binds”.

B1: Immunoglobulin superfamily member 9b (protein, UniProt E9PZ19 18-1328)
chain: LVAQGAHGLREEPEFVTARAGEGVVLRCDVIHPVTGQPPPYVVEWFKFGVPIPIFIKFGYYPPHVDPEYAGRASLHDKASLRLEQVRSEDQGWYECKVLMLDQQYDTFHNGSWVHLTINAPPTFTETPPQYIEAKEGGSITMTCTAFGNPKPIVTWLKEGTLLGASAKYQVSDGSLTVTSVSREDRGAYTCRAYSIQGEAVHTTHLLVQGPPFIVSPPENITVNISQDALLTCRAEAYPGNLTYTWYWQDENVYFQNDLKLRVRILIDGTLIIFRVKPEDAGKYTCVPSNSLGRSPSASAYLTVQYPARVLNMPPVIYVPVGIHGYIRCPVDAEPPATVVKWNKDGRPLQVEKNLGWTLMEDGSIRIEEATEEALGTYTCVPYNTLGTMGQSAPARLVLKDPPYFTVLPGWEYRQEAGRELLIPCAAAGDPFPVITWRKVGKPSRSKHNALPSGSLQFRALSKEDHGEWECVATNVVTSITASTHLTVIGTSPHAPGSVRVHVSMTTANVSWEPGYDGGYEQTFSVWMKRAQFGPHDWLSLSVPPGPSWLLVDSLEPETAYQFSVLAQNRLGTSAFSEVVTVNTLAFPVTTPEPLVLVTPPRCLTANRTQQGVLLSWLPPANHSFPIDRYIMEFRVGERWEMLDDAIPGTDGDFFAKDLSQDTWYEFRVLAVMQDLISEPSNIAGVSSTDIFPQPDLTDDGLARPVLAGIVATICFLAAAILFSTLAACFVNKQRKRKLKRKKDPPLSITHCRKSLESPLSSGKVSPESIRTLRAPSESSDDQGQPAAKRMLSPTREKELSLYKKTKRAISSRKYSVAKAEAEAEATTPIELISRGPDGRFVMGPSEMEPSVKGRRIEGFPFAEETDMYPEFRQSDEENEDPLVPTSVAALKPQLTPMSSSQDSYLPPPAYSPRFQPRGLEGPSGLGGRLQATGQARPPAPRPFQHGQYYGYLSSSSPGEVEPPPFYMPEVGSPLSSVMSSPPLHTEGPFGHPTIPEENGENASNSTLPLTQTPTGGRSPEPWGRPEFPFGGLETPAMMFPHQLHPCDVAESLQPKACLPRGLPPAPLQVPAAYPGMLSLEAPKGWVGKSPGRGPIPAPPATKWQERPMQPLVSQGQLRHTSQGMGIPVLPYPEPAEPGGHGGPSTFGLDTRWYEPQPRPRPSPRQARRAEPSLHQVVLQPSRLSPLTQSPLSSRTGSPELAARARPRPGLLQQAEMSEITLQPPAAVSFSRKSTPSSTGSPSQSSRSGSPSYRPTMGFTTLATGYPSPPPGPAPPAPGDTLDVFGQTPSPRRMGEEPLRPEPPTTLPTSG
Take B1: the binding entry is on record as “binds”.
